PMC7819943, “Rice protein-binding microarrays: a tool to detect cis-acting elements near promoter regions in rice”
This is one part of the list.

By UniProt entry, the sequences of proteins in these tests, tags left out.
UniProt Q0JBA9, entry or part of it: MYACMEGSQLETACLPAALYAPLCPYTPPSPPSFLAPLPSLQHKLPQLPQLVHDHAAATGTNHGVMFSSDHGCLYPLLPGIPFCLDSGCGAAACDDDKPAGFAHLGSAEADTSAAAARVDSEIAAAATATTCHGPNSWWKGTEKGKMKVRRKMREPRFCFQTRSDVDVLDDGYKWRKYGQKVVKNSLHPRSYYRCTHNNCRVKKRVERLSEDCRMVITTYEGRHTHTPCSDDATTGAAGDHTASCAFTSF

Each sequence was assayed against OsWRKY34 (Oryza sativa, UniProt Q0JBA9 1-250) (assay: protein-binding microarray (RPBM); PBS, 2% BSA, 51.3 ng/ul salmon testes DNA, 50 uM zinc acetate, 200 nM TF, 25 C, 1 h; high values mean tight binding). Conditions: protein: recombinant; tags: N-terminal polyhistidine and DsRed monomer fusion (pET32a); label: CyDye5-dUTP incorporated in the synthesized complementary strand; 3' TTTTT single-stranded linker to array surface; dsDNA, one strand shown.
Summary of the method: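 Using Ni–NTA, transcription factors fused N-terminally to polyhistidine and DsRed were purified after expression in E. coli BL21-CodonPlus. These were incubated at 200 nM with a blocked, double-stranded custom Agilent array for 1 h at 25 °C in a buffer containing 50 µM zinc acetate, and the array was washed. The binding signal is per-feature fluorescence intensity (arbitrary units) on an Axon 4000B scanner.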
With “GGATTGATGGATGGATGTATGTTTTGTATGGTTCTCTGGACGGAGTCACCTAGTGCAG” the binding signal was 8820 fluorescence intensity (a.u.).
With “GATTCGCGTCCTCCGTTTGCTTCGCTTCTTCTTCTAGAACCGGAGTCACCTAGTGCAG” the binding signal was 11500 fluorescence intensity (a.u.).
“AGGTCGCTCTGGCTGCTATTCGGGTTCTTCATGTGCTGACCGGAGTCACCTAGTGCAG” was tested, and the binding signal was 10300 fluorescence intensity (a.u.).
In the case of “GGTGTGTTTTTTTTTAAAAAAATTTCTATGCGAAAGTTGTCGGAGTCACCTAGTGCAG”, the binding signal is reported as 8900 fluorescence intensity (a.u.).
With “CTCCTCCTACCACCACTATTGCTGTTTACTATACGGGTTACGGAGTCACCTAGTGCAG” the binding signal was 9340 fluorescence intensity (a.u.).
“CAGCAGGGAGGTTTTTTATTGGTCGTAAGCAGAAGAAGCGCGGAGTCACCTAGTGCAG” was tested, and the binding signal was 8460 fluorescence intensity (a.u.).
With “TTTCGGCCCACATTCCTATCCGTTTTTGCTCGGGTGGGCTCGGAGTCACCTAGTGCAG” the binding signal was 10900 fluorescence intensity (a.u.).
For “CGACACGGTCTCCAAAACACAACTTTGACTTCTTAGTTTCCGGAGTCACCTAGTGCAG”, the binding signal was 8410 fluorescence intensity (a.u.).
For “CTGAGTGGCTGGGTGGGGTAGTGAAAAAAATCATCGCGCGCGGAGTCACCTAGTGCAG”, the binding signal was 18200 fluorescence intensity (a.u.).
In the case of “AATTGTGCATTTTTATTTTGGGATGTTTATTATGTTATCTCGGAGTCACCTAGTGCAG”, the binding signal is reported as 10300 fluorescence intensity (a.u.).
In the case of “GACACGGAAAATCATGGTTTGACTTTTTTTTTTGGGACGGCGGAGTCACCTAGTGCAG”, the binding signal is reported as 19400 fluorescence intensity (a.u.).
In the case of “CTTTTTTCTTGCTGATAAGTTCCACAGTTGATGTCACGTACGGAGTCACCTAGTGCAG”, the binding signal is reported as 12200 fluorescence intensity (a.u.).
For “TCTTTTTAAAATCGCTCGTTAAGTTGGACTTTCTTTTCTTCGGAGTCACCTAGTGCAG”, the binding signal was 8480 fluorescence intensity (a.u.).
For “GTGGTGTGCAAATGGAGGAGCTTTTTTTTGTGGAGGGAGACGGAGTCACCTAGTGCAG”, the binding signal was 8220 fluorescence intensity (a.u.).
In the case of “CCCCAACTGTCTCGCTTGTCGTTAGTATCATCATATCATGCGGAGTCACCTAGTGCAG”, the binding signal is reported as 9360 fluorescence intensity (a.u.).
In the case of “ATCACTCTACCTTCATCTTCCAAACTTCTTATTATGCTCTCGGAGTCACCTAGTGCAG”, the binding signal is reported as 9000 fluorescence intensity (a.u.).
In the case of “AAATGCAGCCACCGCACCAGATCGAAATGGGGTTTTCTTTCGGAGTCACCTAGTGCAG”, the binding signal is reported as 11200 fluorescence intensity (a.u.).
“GCCGACAACCATGTCCTCTTCTCGCTAAGCATGTCCTCCTCGGAGTCACCTAGTGCAG” was tested, and the binding signal was 8460 fluorescence intensity (a.u.).
With “ACGTCGTTCTCGCCTCGCTACCGCCTCTCCGGGCCCATCTCGGAGTCACCTAGTGCAG” the binding signal was 8480 fluorescence intensity (a.u.).
In the case of “CTGCATGTCTAGTTGTCTGTTGAATGATTCTGGCCAAGTACGGAGTCACCTAGTGCAG”, the binding signal is reported as 8740 fluorescence intensity (a.u.).
For “TCCGCCAAAACCCCAATCCAATCGGGCTCCGACTCCGACTCGGAGTCACCTAGTGCAG”, the binding signal was 8230 fluorescence intensity (a.u.).
For “GTTTAATTTGTATTTTTTTCCATGGCAGTCACTTTCCCAGCGGAGTCACCTAGTGCAG”, the binding signal was 9910 fluorescence intensity (a.u.).
“CACCTCCCTTTTGTGATCTGCACATCCTACTCACAGTCGCCGGAGTCACCTAGTGCAG” was tested, and the binding signal was 8290 fluorescence intensity (a.u.).
For “ATTTTGTCACGGATTCGGCGCCTCCTCGCCTCGGCTGCATCGGAGTCACCTAGTGCAG”, the binding signal was 8850 fluorescence intensity (a.u.).
For “GATAGGAGAGGGTAGGTAGAAAAACGGCTTCATTTTAAGACGGAGTCACCTAGTGCAG”, the binding signal was 8560 fluorescence intensity (a.u.).
For “AAAATTTTTTTACTACTAGTGTTTTTATTGTTATTAGATTCGGAGTCACCTAGTGCAG”, the binding signal was 8230 fluorescence intensity (a.u.).
For “CAGTTTCAATACTTCTGAAGATTTATGCAACTTTTCTTTCCGGAGTCACCTAGTGCAG”, the binding signal was 11400 fluorescence intensity (a.u.).
For “CGTCTTCCTGTTGCCCTGTTGTTTGCTGCACCTCATGGCCCGGAGTCACCTAGTGCAG”, the binding signal was 11500 fluorescence intensity (a.u.).
“CTTTTTTTTTTGCAACTGTGAGTACTTACGTCAGATTTTCCGGAGTCACCTAGTGCAG” was tested, and the binding signal was 10700 fluorescence intensity (a.u.).
For “CTCGCCTGACCCTGTCAAACGCCGGGCCGCGGACCCCGCCCGGAGTCACCTAGTGCAG”, the binding signal was 8970 fluorescence intensity (a.u.).
With “ATTCCTGTGTTTTTCCTATCCTGTGTTTGAAAGGGGCCCTCGGAGTCACCTAGTGCAG” the binding signal was 8670 fluorescence intensity (a.u.).
“AGATGAAGTTTTTTTTACGTAAAAACGGGGTGGTATTAACCGGAGTCACCTAGTGCAG” was tested, and the binding signal was 11800 fluorescence intensity (a.u.).
For “TCACCGCTGCACTCTCACGCTCACACACATGAGCTCTAGTCGGAGTCACCTAGTGCAG”, the binding signal was 8620 fluorescence intensity (a.u.).
In the case of “CCGCCGGCGCTTGCTCTCCACCCACCCGCGCTTCTTCGCCCGGAGTCACCTAGTGCAG”, the binding signal is reported as 9040 fluorescence intensity (a.u.).
“TGGGCGGTTTTGTGAGGGGAAGCTCTAAATTTGGGCGATACGGAGTCACCTAGTGCAG” was tested, and the binding signal was 9320 fluorescence intensity (a.u.).
For “ATTTTCTTTAAAAGTTCTCTTTTTATTCTTGATTTTGGTTCGGAGTCACCTAGTGCAG”, the binding signal was 8760 fluorescence intensity (a.u.).
“CGCCGCCGCCGCCTCTCCCATCGCTTCCACCTCCGAGGGCCGGAGTCACCTAGTGCAG” was tested, and the binding signal was 8230 fluorescence intensity (a.u.).
For “GGGCGATGTGTCAAGTCTTTTGGAATTTTTTTACAATTATCGGAGTCACCTAGTGCAG”, the binding signal was 8380 fluorescence intensity (a.u.).
“AGGTCTACTGGCTCAGCTCGCATATCTACTTGTCTCTTCTCGGAGTCACCTAGTGCAG” was tested, and the binding signal was 10200 fluorescence intensity (a.u.).
“AGGTGCCACTCTTTTTCCCCATTGTGAGCCAACAGCTATACGGAGTCACCTAGTGCAG” was tested, and the binding signal was 8600 fluorescence intensity (a.u.).
With “TGGCAATTAATTAATCACGCGGTCTTAATATATACTCCCGCGGAGTCACCTAGTGCAG” the binding signal was 8180 fluorescence intensity (a.u.).
With “GATCATACACGATTGTACATGCATAACGTTATCATATATTCGGAGTCACCTAGTGCAG” the binding signal was 10300 fluorescence intensity (a.u.).
